{"sequences": {"note": "Chains of the proteins cited; added tags and fusions are not shown. Residues count along the entry.", "UniProt Q8BUN5, residues 2-425": "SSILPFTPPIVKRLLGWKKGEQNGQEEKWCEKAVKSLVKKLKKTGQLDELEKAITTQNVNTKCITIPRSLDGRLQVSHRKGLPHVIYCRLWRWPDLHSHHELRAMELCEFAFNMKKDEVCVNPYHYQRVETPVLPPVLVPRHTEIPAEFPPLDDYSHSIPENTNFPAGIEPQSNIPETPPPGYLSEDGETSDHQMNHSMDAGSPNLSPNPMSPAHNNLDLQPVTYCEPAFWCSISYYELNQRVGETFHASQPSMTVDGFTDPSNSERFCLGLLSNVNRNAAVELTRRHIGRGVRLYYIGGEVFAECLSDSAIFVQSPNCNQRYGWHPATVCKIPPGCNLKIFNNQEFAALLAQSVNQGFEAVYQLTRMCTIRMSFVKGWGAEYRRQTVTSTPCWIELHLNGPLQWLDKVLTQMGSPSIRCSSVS", "UniProt Q62432, residues 2-467": "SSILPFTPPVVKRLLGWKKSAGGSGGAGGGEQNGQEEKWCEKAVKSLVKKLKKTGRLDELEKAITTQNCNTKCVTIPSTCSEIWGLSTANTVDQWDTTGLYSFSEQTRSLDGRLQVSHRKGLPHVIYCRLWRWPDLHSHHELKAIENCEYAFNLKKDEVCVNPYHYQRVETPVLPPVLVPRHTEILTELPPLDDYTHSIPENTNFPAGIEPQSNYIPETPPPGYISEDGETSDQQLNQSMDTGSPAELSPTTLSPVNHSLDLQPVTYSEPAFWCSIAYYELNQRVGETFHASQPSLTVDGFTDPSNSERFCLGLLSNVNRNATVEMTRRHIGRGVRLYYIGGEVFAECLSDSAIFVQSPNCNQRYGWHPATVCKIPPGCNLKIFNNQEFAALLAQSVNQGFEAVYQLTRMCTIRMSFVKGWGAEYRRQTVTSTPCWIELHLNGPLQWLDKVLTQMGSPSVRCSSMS"}, "source": "patent US20240382563A1", "molecules": {"B1": {"name": "STAT1, endogenous mouse protein in MEFs (protein, UniProt P42225 2-749, looked up)", "chain": "SQWFELQQLDSKFLEQVHQLYDDSFPMEIRQYLAQWLEKQDWEHAAYDVSFATIRFHDLLSQLDDQYSRFSLENNFLLQHNIRKSKRNLQDNFQEDPVQMSMIIYNCLKEERKILENAQRFNQAQEGNIQNTVMLDKQKELDSKVRNVKDQVMCIEQEIKTLEELQDEYDFKCKTSQNREGEANGVAKSDQKQEQLLLHKMFLMLDNKRKEIIHKIRELLNSIELTQNTLINDELVEWKRRQQSACIGGPPNACLDQLQTWFTIVAETLQQIRQQLKKLEELEQKFTYEPDPITKNKQVLSDRTFLLFQQLIQSSFVVERQPCMPTHPQRPLVLKTGVQFTVKSRLLVKLQESNLLTKVKCHFDKDVNEKNTVKGFRKFNILGTHTKVMNMEESTNGSLAAELRHLQLKEQKNAGNRTNEGPLIVTEELHSLSFETQLCQPGLVIDLETTSLPVVVISNVSQLPSGWASILWYNMLVTEPRNLSFFLNPPCAWWSQLSEVLSWQFSSVTKRGLNADQLSMLGEKLLGPNAGPDGLIPWTRFCKENINDKNFSFWPWIDTILELIKNDLLCLWNDGCIMGFISKERERALLKDQQPGTFLLRFSESSREGAITFTWVERSQNGGEPDFHAVEPYTKKELSAVTFPDIIRNYKVMAAENIPENPLKYLYPNIDKDHAFGKYYSRPKEAPEPMELDDPKRTGYIKTELISVSEVHPSRLQTTDNLLPMSPEEFDEMSRIVGPEFDSMMSTV"}, "B2": {"name": "STAT6, endogenous mouse protein in MEFs (protein, UniProt P52633 2-837, looked up)", "chain": "SLWGLISKMSPEKLQRLYVDFPQRLRHLLADWLESQPWEFLVGSDAFCYNMASALLSATVQRLQATAGEQGKGNSILPHISTLESIYQRDPLKLVATIRQILQGEKKAVIEEFRHLPGPFHRKQEELKFTTALGRLQHRVRETRLLRESLQQGAKTGQVSLQNLIDPPVNGPGPSEDLATMLQGTVGDLEATQALVLKRIQIWKRQQQLAGNGTPFEESLAGLQERCESLVEIYSQLQQEIGAASGELEPKTRASLISRLDEVLRTLVTSSFLVEKQPPQVLKTQTKFQAGVRFLLGLQFLGTSAKPPMVRADMVTEKQARELSLAQGPGTGVESTGEIMNNTVPLENSIPSNCCSALFKNLLLKKIKRCERKGTESVTEEKCAVLFSTSFTLGPNKLLIQLQALSLPLVVIVHGNQDNNAKATILWDNAFSEMDRVPFVVAERVPWEKMCETLNLKFMAEVGTSRGLLPEHFLFLAQKIFNDNSLSVEAFQHRCVSWSQFNKEILLGRGFTFWQWFDGVLDLTKRCLRSYWSDRLIIGFISKQYVTSLLLNEPDGTFLLRFSDSEIGGITIAHVIRGQDGSSQIENIQPFSAKDLSIRSLGDRIRDLAQLKNLYPKKPKDEAFRSHYKPEQMGKDGRGYVSTTIKMTVERDQPLPTPEPQMPAMVPPYDLGMAPDASMQLSSDMGYPPQSIHSFQSLEESMSVLPSFQEPHLQMPPNMSQITMPFDQPHPQGLLQCQSQEHAVSSPEPMLCSDVTMVEDSCLTQPVGGFPQGTWVSEDMYPPLMPPTEQDLTKLLLENQGEAGGSLGSQPLLQPSPYGQSGISLSHLDLRTNPSW"}}, "key": {"[1]": {"target": "T1, RB (retinoblastoma polypeptide), endogenous mouse protein in MEFs (mouse) (UniProt P13405)", "T1 sequence (looked up)": "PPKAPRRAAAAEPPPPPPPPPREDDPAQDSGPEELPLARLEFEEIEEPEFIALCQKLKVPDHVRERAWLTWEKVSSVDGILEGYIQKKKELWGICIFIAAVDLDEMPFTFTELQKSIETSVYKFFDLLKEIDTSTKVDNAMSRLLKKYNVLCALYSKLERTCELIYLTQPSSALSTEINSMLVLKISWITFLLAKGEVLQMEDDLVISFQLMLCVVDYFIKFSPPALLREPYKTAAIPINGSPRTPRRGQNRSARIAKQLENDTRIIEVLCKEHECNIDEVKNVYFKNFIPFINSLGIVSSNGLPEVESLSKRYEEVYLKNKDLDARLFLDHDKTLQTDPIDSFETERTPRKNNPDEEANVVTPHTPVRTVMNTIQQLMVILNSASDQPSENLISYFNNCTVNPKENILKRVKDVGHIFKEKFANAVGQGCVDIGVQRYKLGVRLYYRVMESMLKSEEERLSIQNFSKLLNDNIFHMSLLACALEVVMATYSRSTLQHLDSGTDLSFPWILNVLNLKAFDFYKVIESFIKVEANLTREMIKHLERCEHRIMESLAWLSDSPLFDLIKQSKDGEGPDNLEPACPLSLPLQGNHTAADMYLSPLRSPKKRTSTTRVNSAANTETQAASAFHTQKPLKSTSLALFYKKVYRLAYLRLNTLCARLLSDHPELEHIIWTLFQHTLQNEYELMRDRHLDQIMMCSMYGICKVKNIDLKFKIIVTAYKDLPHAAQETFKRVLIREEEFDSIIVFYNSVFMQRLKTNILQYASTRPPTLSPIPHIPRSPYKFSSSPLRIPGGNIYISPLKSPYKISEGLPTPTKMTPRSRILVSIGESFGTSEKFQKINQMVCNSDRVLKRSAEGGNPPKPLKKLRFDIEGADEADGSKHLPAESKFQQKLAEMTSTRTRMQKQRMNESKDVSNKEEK", "assay": "co-immunoprecipitation from IR-senescent MEFs, western blot probed for RB"}, "[2]": {"target": "T1, RB (retinoblastoma polypeptide), endogenous mouse protein in MEFs (mouse)", "assay": "co-immunoprecipitation from chromatin fraction of D4 P21-OE MEFs, western blot probed for RB"}}, "note": "These are yes or no findings as the source states them, for the method shown. In cells and extracts the contact can be indirect. Some results given as binding are weak or reduced against the parent protein; the word gives no strength."}
{"molecule": "SMAD3, endogenous mouse protein in MEFs (from UniProt Q8BUN5 2-425)", "values": [{"measurement": "binding", "setting": "[1]", "value": "binds"}, {"measurement": "binding", "setting": "[2]", "value": "binds"}]}
{"molecule": "SMAD2, endogenous mouse protein in MEFs (from UniProt Q62432 2-467)", "values": [{"measurement": "binding", "setting": "[1]", "value": "binds"}, {"measurement": "binding", "setting": "[2]", "value": "binds"}]}
{"molecule": "B1", "values": [{"measurement": "binding", "setting": "[1]", "value": "binds"}, {"measurement": "binding", "setting": "[2]", "value": "binds"}]}
{"molecule": "B2", "values": [{"measurement": "binding", "setting": "[1]", "value": "binds"}, {"measurement": "binding", "setting": "[2]", "value": "binds"}]}
